From the supplement of paper PMC8728848
The other results are listed elsewhere or left out.

Tests used:
Assay in all cases: glycan array binding signal (z-score within array); higher = stronger binding
Settings in all cases: glycan notation: IUPAC condensed, linker removed
[1] = target: Gal(b1-3)GlcNAc(b1-6)[Gal(b1-3)]GalNAc
Procedure, shortened: (§1)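 From the Consortium for Functional Glycomics database, 3228 arrays were curated, keeping only those whose protein sequence was available. Binding is given as a within-array Z-score averaged across arrays sharing a protein sequence and across linkers. Negative Z-scores can be read as non-binding.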

Gal(b1-3)GlcNAc6S = target: Gal(b1-3)GlcNAc6S
Procedure, shortened: as §1

[2] = target: Gal(b1-3)[Fuc(a1-4)]GlcNAc
Procedure, shortened: as §1

[3] = target: Gal(b1-3)[Fuc(a1-4)]GlcNAc(b1-2)Man
Procedure, shortened: as §1

[4] = target: Gal(b1-3)[Fuc(a1-4)]GlcNAc(b1-2)Man(a1-3)[Gal(b1-3)[Fuc(a1-4)]GlcNAc(b1-2)Man(a1-6)]Man(b1-4)GlcNAc(b1-4)[Fuc(a1-6)]GlcNAc
Procedure, shortened: as §1

[5] = target: Gal(b1-3)[Fuc(a1-4)]GlcNAc(b1-3)Gal(b1-3)[Fuc(a1-4)]GlcNAc
Procedure, shortened: as §1

[6] = target: Gal(b1-3)[Fuc(a1-4)]GlcNAc(b1-3)Gal(b1-4)[Fuc(a1-3)]GlcNAc
Procedure, shortened: as §1

[7] = target: Gal(b1-3)[Fuc(a1-4)]GlcNAc(b1-6)GalNAc
Procedure, shortened: as §1

[8] = target: Gal(b1-3)[GlcNAc(b1-6)]GalNAc
Procedure, shortened: as §1

[9] = target: Gal(b1-3)[Neu5Ac(a2-6)]GalNAc
Procedure, shortened: as §1

[10] = target: Gal(b1-3)[Neu5Ac(a2-6)]GlcNAc(b1-4)Gal(b1-4)Glc
Procedure, shortened: as §1

[11] = target: Gal(b1-3)[Neu5Ac(b2-6)]GalNAc
Procedure, shortened: as §1

Gal(b1-4)Gal = target: Gal(b1-4)Gal
Procedure, shortened: as §1

[12] = target: Gal(b1-4)GalNAc(a1-3)[Fuc(a1-2)]Gal(b1-4)GlcNAc
Procedure, shortened: as §1

[13] = target: Gal(b1-4)GalNAc(b1-3)[Fuc(a1-2)]Gal(b1-4)GlcNAc
Procedure, shortened: as §1

Gal(b1-4)Glc = target: Gal(b1-4)Glc
Procedure, shortened: as §1

Gal(b1-4)Glc6S = target: Gal(b1-4)Glc6S
Procedure, shortened: as §1

Gal(b1-4)GlcNAc = target: Gal(b1-4)GlcNAc
Procedure, shortened: as §1

[14] = target: Gal(b1-4)GlcNAc(a1-6)Gal(b1-4)GlcNAc
Procedure, shortened: as §1

Gal(b1-4)GlcNAc(b1-2)Man = target: Gal(b1-4)GlcNAc(b1-2)Man
Procedure, shortened: as §1

[15] = target: Gal(b1-4)GlcNAc(b1-2)Man(a1-3)Man(b1-4)GlcNAc(b1-4)GlcNAc
Procedure, shortened: as §1

[16] = target: Gal(b1-4)GlcNAc(b1-2)Man(a1-3)[Gal(b1-4)GlcNAc(b1-2)Man(a1-6)]Man(b1-4)GlcNAc(b1-4)GlcNAc
Procedure, shortened: as §1

[17] = target: Gal(b1-4)GlcNAc(b1-2)Man(a1-3)[Gal(b1-4)GlcNAc(b1-2)Man(a1-6)]Man(b1-4)GlcNAc(b1-4)[Fuc(a1-6)]GlcNAc
Procedure, shortened: as §1

[18] = target: Gal(b1-4)GlcNAc(b1-2)Man(a1-3)[Gal(b1-4)GlcNAc(b1-2)Man(a1-6)][Gal(b1-4)GlcNAc(b1-4)]Man(b1-4)GlcNAc(b1-4)[Fuc(a1-6)]GlcNAc
Procedure, shortened: as §1

[19] = target: Gal(b1-4)GlcNAc(b1-2)Man(a1-3)[Gal(b1-4)GlcNAc(b1-2)Man(a1-6)][GlcNAc(b1-4)]Man(b1-4)GlcNAc(b1-4)[Fuc(a1-6)]GlcNAc
Procedure, shortened: as §1

[20] = target: Gal(b1-4)GlcNAc(b1-2)Man(a1-3)[GlcNAc(b1-2)Man(a1-6)]Man(b1-4)GlcNAc(b1-4)GlcNAc
Procedure, shortened: as §1

[21] = target: Gal(b1-4)GlcNAc(b1-2)Man(a1-3)[GlcNAc(b1-4)][Gal(b1-4)GlcNAc(b1-2)Man(a1-6)]Man(b1-4)GlcNAc(b1-4)GlcNAc
Procedure, shortened: as §1

[22] = target: Gal(b1-4)GlcNAc(b1-2)Man(a1-3)[Man(a1-6)]Man(b1-4)GlcNAc(b1-4)GlcNAc
Procedure, shortened: as §1

[23] = target: Gal(b1-4)GlcNAc(b1-2)Man(a1-6)Man(b1-4)GlcNAc(b1-4)GlcNAc
Procedure, shortened: as §1

[24] = target: Gal(b1-4)GlcNAc(b1-2)Man(a1-6)[GlcNAc(b1-2)Man(a1-3)]Man(b1-4)GlcNAc(b1-4)GlcNAc
Procedure, shortened: as §1

[25] = target: Gal(b1-4)GlcNAc(b1-2)Man(a1-6)[Man(a1-3)]Man(b1-4)GlcNAc(b1-4)GlcNAc
Procedure, shortened: as §1

[26] = target: Gal(b1-4)GlcNAc(b1-2)[Gal(b1-4)GlcNAc(b1-4)]Man(a1-3)[Gal(b1-4)GlcNAc(b1-2)Man(a1-6)]Man(b1-4)GlcNAc(b1-4)GlcNAc
Procedure, shortened: as §1

[27] = target: Gal(b1-4)GlcNAc(b1-2)[Gal(b1-4)GlcNAc(b1-4)]Man(a1-3)[Gal(b1-4)GlcNAc(b1-2)[Gal(b1-4)GlcNAc(b1-6)]Man(a1-6)]Man(b1-4)GlcNAc(b1-4)GlcNAc
Procedure, shortened: as §1

[28] = target: Gal(b1-4)GlcNAc(b1-2)[Gal(b1-4)GlcNAc(b1-4)]Man(a1-3)[GlcNAc(b1-4)][Gal(b1-4)GlcNAc(b1-2)Man(a1-6)]Man(b1-4)GlcNAc(b1-4)GlcNAc
Procedure, shortened: as §1

[29] = target: Gal(b1-4)GlcNAc(b1-2)[Gal(b1-4)GlcNAc(b1-4)]Man(a1-3)[GlcNAc(b1-4)][Gal(b1-4)GlcNAc(b1-2)[Gal(b1-4)GlcNAc(b1-6)]Man(a1-6)]Man(b1-4)GlcNAc(b1-4)GlcNAc
Procedure, shortened: as §1

[30] = target: Gal(b1-4)GlcNAc(b1-2)[Gal(b1-4)GlcNAc(b1-6)]Man(a1-6)[Gal(b1-4)GlcNAc(b1-2)Man(a1-3)]Man(b1-4)GlcNAc(b1-4)GlcNAc
Procedure, shortened: as §1

[31] = target: Gal(b1-4)GlcNAc(b1-2)[Gal(b1-4)GlcNAc(b1-6)]Man(a1-6)[Gal(b1-4)GlcNAc(b1-2)Man(a1-3)]Man(b1-4)GlcNAc(b1-4)[Fuc(a1-6)]GlcNAc
Procedure, shortened: as §1

B1: Aap brpt (Staphylococcus epidermidis) (protein)
chain: VDGDPITSTEEIPFDKKREFDPNLAPGTEKVVQKGEPGTKTITTPTTKNPLTGEKVGEGEPTEKITKQPVDEIVHYGGEEIKTGHKDEFDPNAPKGSQTTQPGKPGVKNPDTGEVVTPPVDDVTKYGPVDGDPITSTEEIPFDKKREFDPNLAPGTEKVVQKGEPGTKTITTPTTKNPLTGEKVGEGEPTEKITKQPVDEIVHYGGEEIKPGHKDEFDPNAPKGSQEDVPGKPGVKNPDTGEVVTPPVDDVTKYGPVDGDSITSTEEIPFDKKREFDPNLAPGTEKVVQKGEPGTKTITTPTTKNPLTGEKVGEGEPTEKITKQPVDEIVHYGGEQIPQGHKDEFDPNAPVDSKTEVPGKPGVKNPDTGEVVTPPVDDVTKYGPVDGDSITSTEEIPFDKKREFDPNLAPGTEKVVQKGEPGTKTITTPTTKNPLTGEKVGEGKSTEKVTKQPVDEIVEYGPTK
glycan array binding signal (z-score) [1]: -0.991
glycan array binding signal (z-score) (Gal(b1-3)GlcNAc6S): -0.16
glycan array binding signal (z-score) [2]: -1.71
glycan array binding signal (z-score) [3]: 1.38
glycan array binding signal (z-score) [4]: 0.433
glycan array binding signal (z-score) [5]: -0.417
glycan array binding signal (z-score) [6]: 0.435
glycan array binding signal (z-score) [7]: -0.864
glycan array binding signal (z-score) [8]: 1.05
glycan array binding signal (z-score) [9]: 0.106
glycan array binding signal (z-score) [10]: 0.993
glycan array binding signal (z-score) [11]: -0.314
glycan array binding signal (z-score) (Gal(b1-4)Gal): -0.164
glycan array binding signal (z-score) [12]: -0.648
glycan array binding signal (z-score) [13]: 1.01
glycan array binding signal (z-score) (Gal(b1-4)Glc): 0.647
glycan array binding signal (z-score) (Gal(b1-4)Glc6S): -0.697
glycan array binding signal (z-score) (Gal(b1-4)GlcNAc): -1.05
glycan array binding signal (z-score) [14]: -0.185
glycan array binding signal (z-score) (Gal(b1-4)GlcNAc(b1-2)Man): -0.301
glycan array binding signal (z-score) [15]: -0.208
glycan array binding signal (z-score) [16]: -0.887
glycan array binding signal (z-score) [17]: 0.809
glycan array binding signal (z-score) [18]: -0.738
glycan array binding signal (z-score) [19]: 0.246
glycan array binding signal (z-score) [20]: -0.003
glycan array binding signal (z-score) [21]: -1.94
glycan array binding signal (z-score) [22]: -0.706
glycan array binding signal (z-score) [23]: -0.494
glycan array binding signal (z-score) [24]: 0.331
glycan array binding signal (z-score) [25]: 0.547
glycan array binding signal (z-score) [26]: 0.146
glycan array binding signal (z-score) [27]: 0.481
glycan array binding signal (z-score) [28]: 0.586
glycan array binding signal (z-score) [29]: -0.768
glycan array binding signal (z-score) [30]: -1.94
glycan array binding signal (z-score) [31]: 1.37
